Reference: patent publication US20250019451A1
Results are given in words; binding and its absence hold for the method and conditions named. Binding calls can cover weak binding; strength is not graded here.

Key:
[1] = target: human CCR8 with extracellular domain 2 (ECL2) from human CCR4 (human); assay: flow cytometry on ExpiHEK293 cells expressing the CCR8/CCR4 chimera, 50 nM antibody
[2] = target: human CCR8 with extracellular domain 3 (ECL3) from human CCR4 (human); assay: as above

Binder	binding [1]	binding [2]
HFB11-2 (antibody, human IgG1, V domains shown) VH: EVQLVESGGGLVQPKGSLKLSCAASGFSFNTYAMNWVRQAPGKGLEWVARIRSKSNNYATYYADSVKDRFTISRDDSERMLYLQMNNLKTEDTAMYYCVRGGSYYSNHYFDYWGQGTTLTVSS VL: DIVMTQAAPSVPVTPGESVSISCRSSKSLLHSNGNTYLYWFLQRPGQSPQLLIYQMSNLASGVPDRFSGSGSGTAFTLRISRVEAEDVGVYYCMQHLEYPFTFGAGTKLELK	binds	binds
HFB11-5 (antibody, human IgG1, V domains shown) VH: EVQLVESGGGLVQPRGSLKLSCTASGFSFNAYAMNWVRQAPGKGLEWVARIRTKSNNYATYYADSVKDRFTISRDDSESMLYLQMKNLKTEDTAMYYCVRGGYGNGGYYFDYWGQGTTLTVSS VL: DIVMTQAAPSVTVTPGESASISCRSSKSLLHRNGNSYLYWFLQRPGQSPQLLIYRISNLASGVPDRFSGSGSGTAFTLRISRVEAEDVGVYYCMQHLEYPFTFGSGTKLEIK	binds	binds
HFB11-3 (antibody, human IgG1, V domains shown) VH: EVQLVESGGGLVQPQGSLKLSCAASGFSFNTYAMNWVRQAPGKGLQWVARIRSKSNNYATYYADSVKDRFTISRDDSESMLYLQMNNLKTEDAAMYYCVRGKDANYFYAMDYWGQGTSVTVSS VL: DIVMTQAAPSVPVTPGESVSISCRSSKSLLHSNGNTYLYWFLQRPGQSPQLLIYRMSNLASGVPDRFSGSGSGTAFTLRISRVEAEDVGVYYCMQHLEYPFTFGAGTKLELK	binds	binds
HFB11-8 (antibody, human IgG1, V domains shown) VH: EVQLVETGGGLVQPKGSLKLSCAASGFRFNTNAMNWVRQAPGKGLEWVARIRSKSNNYATHYVDSVKDRFTVSRDDSQSMLYLQMNNLKAEDTAMYYCVRGSDNNYYYAMDYWGQGTSVTVSS VL: DIVMTQAAPSVPVTPGESVSISCRSSKSLLHSNGNTYLYWFLQRPGQSPQLLIYRMSNLASGVPDRFSGSGSGTSFTLRISRVEVEDVGVYYCMQHLEYPFTFGSGTKLEIK	binds	binds

Next, values leading:

binding [1]	binding [2]	Binder
binds	binds	HFB11-21 (antibody, human IgG1, V domains shown) VH: QVQLQQPGAELVKPGASVKLSCKASGYTFISYWMHWVKQRPGRGLEWIGRIDPNSGKTKYNEKFKTKATLTVDKSSSTAYMHLNSLTSDDSAVYYCAREGWGDYWGQGTTLTVSS VL: DIVLTQSPASLAVSLGQRATISCRASESVDNYGISFMHWYQQKPGQPPRLLIYRASNLASGIPARFSGSGSSTDFTLTINPVETDDIATYYCQQSNKDPRTFGGGTKLEIK
binds	binds	HFB11-10 (antibody, V domains shown) VH: EVQLVETGGGLVQPKGSLKLSCAASGFRFNTNAMNWVRQAPGKDLEWVARIRSKSNNYATYYADSVKDRFTISRDDSQSMLYLQMNNVKTEDTAMYYCVRGSDNNYYYAMDYWGQGTSVTVSS VL: DIVMTQAAPSVPVTPGESVSISCRSSKSLLHSNGNTYLYWFLQRPGQSPQLLIYRMSNLASGVPDRFSGSGSGTAFTLRISRVEAEDVGVYYCMQHLEYPFTFGSGTKLEIK
binds	binds	HFB11-19 (antibody, human IgG1, V domains shown) VH: QVQLQQSGAELVKPGASVKLSCKASGYTFTDYIIHWVKQRSGQGLEWIGWFSPRNNYVKYNERFTDKATLTADKSSNTVYMELSSLTSEDSAVYFCSRHGRNSIGFAYWGQGTLVTVSA VL: DIVMTQAAPSVPVTPGESVSISCRSSKSLLNSNGNTYLYWFLQRPGQSPQLLIYRMSNLASGVPDRFSGSGSGTAFTLRISRVEAEDVGVYYCMQHLEYPYTFGGGTKLEIK
